Assay results: the supplement of paper PMC10849652
This is one part of the list.

Sequences of proteins named here, by UniProt entry; tags and fusion partners are left off. A change or cut given only in a name is not applied to a line headed by its entry.
UniProt Q9NR19, whole entry, looked up: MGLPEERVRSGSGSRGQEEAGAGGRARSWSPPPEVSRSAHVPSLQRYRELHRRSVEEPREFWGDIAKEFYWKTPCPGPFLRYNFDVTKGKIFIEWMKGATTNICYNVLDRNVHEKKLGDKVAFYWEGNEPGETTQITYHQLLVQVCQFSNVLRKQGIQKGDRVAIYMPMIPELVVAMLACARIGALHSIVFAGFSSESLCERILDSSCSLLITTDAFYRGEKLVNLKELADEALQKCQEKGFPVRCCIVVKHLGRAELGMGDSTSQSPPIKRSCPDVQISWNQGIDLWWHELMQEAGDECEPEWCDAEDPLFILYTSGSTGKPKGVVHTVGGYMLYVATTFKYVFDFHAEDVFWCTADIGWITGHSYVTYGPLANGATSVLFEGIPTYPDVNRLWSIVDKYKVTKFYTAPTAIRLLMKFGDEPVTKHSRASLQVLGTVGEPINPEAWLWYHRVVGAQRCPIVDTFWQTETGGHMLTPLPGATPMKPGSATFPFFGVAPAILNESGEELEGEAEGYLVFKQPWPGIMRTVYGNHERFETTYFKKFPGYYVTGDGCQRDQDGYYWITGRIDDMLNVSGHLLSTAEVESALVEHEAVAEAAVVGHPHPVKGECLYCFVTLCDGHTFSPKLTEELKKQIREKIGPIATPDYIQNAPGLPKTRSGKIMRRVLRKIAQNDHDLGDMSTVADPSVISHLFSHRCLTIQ
UniProt P24752: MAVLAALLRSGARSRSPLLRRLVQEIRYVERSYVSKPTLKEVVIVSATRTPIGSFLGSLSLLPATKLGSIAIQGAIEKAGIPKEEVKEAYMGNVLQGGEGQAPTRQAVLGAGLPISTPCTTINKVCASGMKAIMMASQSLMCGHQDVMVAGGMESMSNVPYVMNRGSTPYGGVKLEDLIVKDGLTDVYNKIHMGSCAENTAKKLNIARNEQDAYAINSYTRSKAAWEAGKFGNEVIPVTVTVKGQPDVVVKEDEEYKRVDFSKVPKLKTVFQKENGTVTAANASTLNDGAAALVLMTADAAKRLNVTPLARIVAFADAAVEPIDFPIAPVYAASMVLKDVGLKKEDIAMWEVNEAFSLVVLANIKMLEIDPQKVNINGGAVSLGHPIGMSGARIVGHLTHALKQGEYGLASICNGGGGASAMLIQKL
UniProt O14672: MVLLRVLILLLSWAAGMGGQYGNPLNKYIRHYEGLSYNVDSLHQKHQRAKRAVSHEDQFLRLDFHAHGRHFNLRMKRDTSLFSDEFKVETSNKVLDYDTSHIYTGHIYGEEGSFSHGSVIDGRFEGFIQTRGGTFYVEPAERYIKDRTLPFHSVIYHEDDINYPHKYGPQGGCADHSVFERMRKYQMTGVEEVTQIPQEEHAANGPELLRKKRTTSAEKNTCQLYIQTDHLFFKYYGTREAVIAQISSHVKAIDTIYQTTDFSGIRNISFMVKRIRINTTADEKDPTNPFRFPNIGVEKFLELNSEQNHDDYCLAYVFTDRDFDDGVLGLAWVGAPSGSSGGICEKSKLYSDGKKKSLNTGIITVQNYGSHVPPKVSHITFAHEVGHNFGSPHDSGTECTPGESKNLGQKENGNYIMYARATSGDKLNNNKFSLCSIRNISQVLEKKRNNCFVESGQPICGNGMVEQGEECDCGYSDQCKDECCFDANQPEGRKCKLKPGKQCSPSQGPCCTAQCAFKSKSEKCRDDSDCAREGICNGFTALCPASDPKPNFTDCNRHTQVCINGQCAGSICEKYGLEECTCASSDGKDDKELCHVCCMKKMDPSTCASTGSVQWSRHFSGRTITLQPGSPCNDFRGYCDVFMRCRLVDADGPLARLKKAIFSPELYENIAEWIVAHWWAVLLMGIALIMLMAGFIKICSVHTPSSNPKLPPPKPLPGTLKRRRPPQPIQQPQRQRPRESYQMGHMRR
UniProt P01023, whole entry, looked up: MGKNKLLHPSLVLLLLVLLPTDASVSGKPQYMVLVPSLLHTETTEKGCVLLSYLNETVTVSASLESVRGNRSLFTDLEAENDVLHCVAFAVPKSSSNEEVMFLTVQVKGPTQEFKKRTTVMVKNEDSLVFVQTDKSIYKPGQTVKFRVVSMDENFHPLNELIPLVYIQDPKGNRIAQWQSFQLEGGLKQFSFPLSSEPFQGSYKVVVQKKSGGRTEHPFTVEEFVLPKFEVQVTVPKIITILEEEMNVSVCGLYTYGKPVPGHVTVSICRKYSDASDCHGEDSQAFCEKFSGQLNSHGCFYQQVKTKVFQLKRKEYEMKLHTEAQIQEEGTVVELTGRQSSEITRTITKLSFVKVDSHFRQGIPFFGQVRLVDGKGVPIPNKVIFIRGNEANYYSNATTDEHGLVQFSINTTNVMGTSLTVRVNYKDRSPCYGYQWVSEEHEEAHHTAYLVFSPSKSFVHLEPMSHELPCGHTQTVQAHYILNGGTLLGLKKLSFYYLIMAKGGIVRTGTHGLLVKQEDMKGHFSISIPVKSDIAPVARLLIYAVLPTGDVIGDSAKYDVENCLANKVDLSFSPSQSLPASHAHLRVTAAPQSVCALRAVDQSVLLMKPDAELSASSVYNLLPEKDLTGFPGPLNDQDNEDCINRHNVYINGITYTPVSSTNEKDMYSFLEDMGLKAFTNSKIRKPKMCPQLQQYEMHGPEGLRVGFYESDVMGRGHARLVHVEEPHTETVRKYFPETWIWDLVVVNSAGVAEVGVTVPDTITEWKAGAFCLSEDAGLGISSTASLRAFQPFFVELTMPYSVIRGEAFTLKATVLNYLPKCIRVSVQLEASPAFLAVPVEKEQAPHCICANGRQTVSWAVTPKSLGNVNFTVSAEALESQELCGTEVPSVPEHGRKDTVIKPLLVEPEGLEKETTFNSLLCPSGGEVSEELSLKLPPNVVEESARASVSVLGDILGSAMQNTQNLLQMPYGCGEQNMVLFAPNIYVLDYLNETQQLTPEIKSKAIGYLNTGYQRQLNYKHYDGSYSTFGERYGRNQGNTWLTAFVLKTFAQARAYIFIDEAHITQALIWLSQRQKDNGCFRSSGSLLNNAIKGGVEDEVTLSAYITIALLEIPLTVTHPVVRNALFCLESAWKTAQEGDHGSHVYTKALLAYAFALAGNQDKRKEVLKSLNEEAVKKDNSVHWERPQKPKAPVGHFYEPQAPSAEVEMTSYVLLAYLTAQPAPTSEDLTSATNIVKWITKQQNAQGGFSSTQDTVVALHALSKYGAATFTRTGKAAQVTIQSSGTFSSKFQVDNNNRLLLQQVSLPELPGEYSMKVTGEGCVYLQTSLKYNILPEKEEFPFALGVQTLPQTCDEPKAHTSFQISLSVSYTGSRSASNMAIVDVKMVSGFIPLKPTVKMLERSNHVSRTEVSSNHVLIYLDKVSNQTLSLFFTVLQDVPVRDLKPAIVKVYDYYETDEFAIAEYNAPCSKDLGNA
UniProt O15439: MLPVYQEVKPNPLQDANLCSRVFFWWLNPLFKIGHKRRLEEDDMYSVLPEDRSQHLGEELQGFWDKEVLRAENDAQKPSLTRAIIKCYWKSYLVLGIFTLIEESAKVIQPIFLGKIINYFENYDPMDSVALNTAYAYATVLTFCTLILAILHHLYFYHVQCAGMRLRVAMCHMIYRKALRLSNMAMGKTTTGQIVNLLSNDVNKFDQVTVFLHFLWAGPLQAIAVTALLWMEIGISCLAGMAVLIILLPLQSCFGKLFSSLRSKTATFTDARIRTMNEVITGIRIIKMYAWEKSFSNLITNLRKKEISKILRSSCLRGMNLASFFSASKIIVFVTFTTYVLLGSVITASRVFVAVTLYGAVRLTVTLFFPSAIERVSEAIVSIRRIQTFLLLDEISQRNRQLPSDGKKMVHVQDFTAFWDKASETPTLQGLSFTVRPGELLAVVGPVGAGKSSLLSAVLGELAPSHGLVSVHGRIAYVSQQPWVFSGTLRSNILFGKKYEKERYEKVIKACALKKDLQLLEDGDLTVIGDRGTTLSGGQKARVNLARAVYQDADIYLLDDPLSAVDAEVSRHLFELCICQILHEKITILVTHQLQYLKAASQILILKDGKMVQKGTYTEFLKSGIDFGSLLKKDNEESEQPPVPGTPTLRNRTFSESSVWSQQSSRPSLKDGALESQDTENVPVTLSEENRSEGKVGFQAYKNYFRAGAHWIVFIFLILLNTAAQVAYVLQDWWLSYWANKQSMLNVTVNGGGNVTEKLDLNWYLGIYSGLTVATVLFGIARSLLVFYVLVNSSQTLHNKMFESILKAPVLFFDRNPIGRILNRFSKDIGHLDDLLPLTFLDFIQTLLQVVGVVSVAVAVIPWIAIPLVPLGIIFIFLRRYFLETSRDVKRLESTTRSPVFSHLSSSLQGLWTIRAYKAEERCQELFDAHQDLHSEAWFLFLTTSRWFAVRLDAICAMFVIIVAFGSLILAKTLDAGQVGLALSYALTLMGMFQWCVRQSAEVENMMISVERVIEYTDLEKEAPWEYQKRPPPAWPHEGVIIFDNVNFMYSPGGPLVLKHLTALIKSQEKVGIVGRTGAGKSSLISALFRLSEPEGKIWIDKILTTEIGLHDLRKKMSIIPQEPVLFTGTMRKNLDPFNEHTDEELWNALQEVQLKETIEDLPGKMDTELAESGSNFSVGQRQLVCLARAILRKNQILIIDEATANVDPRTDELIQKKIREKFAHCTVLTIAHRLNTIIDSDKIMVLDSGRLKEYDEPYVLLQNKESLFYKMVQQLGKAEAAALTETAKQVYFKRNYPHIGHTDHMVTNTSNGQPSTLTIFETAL
UniProt Q03154: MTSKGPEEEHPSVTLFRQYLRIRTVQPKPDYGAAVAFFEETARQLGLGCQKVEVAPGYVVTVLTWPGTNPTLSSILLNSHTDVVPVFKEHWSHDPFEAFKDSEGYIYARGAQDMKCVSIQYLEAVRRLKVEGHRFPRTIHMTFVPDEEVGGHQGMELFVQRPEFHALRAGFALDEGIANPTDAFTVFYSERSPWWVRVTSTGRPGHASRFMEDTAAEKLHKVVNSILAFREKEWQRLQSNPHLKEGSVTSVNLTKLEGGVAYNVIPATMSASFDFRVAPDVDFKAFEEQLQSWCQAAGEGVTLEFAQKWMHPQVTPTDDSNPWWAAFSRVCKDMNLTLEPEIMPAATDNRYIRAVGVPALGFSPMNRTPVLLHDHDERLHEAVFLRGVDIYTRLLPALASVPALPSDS
UniProt Q9GZN1, whole entry, looked up: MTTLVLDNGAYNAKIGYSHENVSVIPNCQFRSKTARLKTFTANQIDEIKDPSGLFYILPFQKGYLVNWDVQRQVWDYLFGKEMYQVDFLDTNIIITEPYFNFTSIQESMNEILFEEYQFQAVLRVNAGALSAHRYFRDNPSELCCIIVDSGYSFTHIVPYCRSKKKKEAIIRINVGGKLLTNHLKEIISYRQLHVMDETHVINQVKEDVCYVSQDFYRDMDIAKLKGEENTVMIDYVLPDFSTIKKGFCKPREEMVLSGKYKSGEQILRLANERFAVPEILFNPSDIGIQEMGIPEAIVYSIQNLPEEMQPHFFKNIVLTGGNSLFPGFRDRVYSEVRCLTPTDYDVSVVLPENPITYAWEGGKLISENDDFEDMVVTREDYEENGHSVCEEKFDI
UniProt P49588, whole entry, looked up: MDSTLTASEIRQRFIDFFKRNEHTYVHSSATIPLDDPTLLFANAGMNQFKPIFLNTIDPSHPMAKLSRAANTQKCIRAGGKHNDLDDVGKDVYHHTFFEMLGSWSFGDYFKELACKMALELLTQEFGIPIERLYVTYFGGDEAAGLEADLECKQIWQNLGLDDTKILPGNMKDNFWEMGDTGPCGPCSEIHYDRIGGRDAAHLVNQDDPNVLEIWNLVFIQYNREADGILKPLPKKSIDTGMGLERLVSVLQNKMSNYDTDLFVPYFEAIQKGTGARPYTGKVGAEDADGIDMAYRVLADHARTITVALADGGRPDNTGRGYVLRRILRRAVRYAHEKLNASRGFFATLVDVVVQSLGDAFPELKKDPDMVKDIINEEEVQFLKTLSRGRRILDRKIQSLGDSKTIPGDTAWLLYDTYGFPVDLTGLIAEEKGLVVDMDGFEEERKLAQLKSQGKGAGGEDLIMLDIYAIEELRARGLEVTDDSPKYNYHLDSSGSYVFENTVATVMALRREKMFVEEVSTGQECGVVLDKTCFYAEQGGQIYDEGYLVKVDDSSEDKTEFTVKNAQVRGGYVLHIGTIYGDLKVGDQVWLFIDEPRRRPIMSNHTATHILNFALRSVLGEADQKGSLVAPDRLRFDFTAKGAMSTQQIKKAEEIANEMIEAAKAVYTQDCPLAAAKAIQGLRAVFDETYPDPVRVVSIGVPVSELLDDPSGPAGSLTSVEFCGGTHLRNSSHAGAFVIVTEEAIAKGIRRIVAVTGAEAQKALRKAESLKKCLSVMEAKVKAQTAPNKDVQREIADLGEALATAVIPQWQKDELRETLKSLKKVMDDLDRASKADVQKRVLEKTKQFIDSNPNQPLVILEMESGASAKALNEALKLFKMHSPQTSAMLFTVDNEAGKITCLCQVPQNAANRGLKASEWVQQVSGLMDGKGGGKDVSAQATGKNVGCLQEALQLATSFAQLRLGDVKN

Compound: Cc1cccc(CC(=O)N2CCc3c2ccc(-c2cn(C)c4ncnc(N)c24)c3F)n1
Assay: log2 fold change, soluble protein after heating vs DMSO (PISA); higher = thermal stabilisation; K562 cells, 10 uM, 30 min; active = over 0.2 and 3.5 SD of the protein, either way, in both replicates (recomputed)
How it was run: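 K562 cells at 2×10^6 cells/mL were given 10 μM compound for 30 min. Aliquots then went through 3 min of heating across 48°C-58°C, were pooled, and were extracted in PBS with 0.5% NP-40 at 4°C, and the supernatant after 21,000xg for 90 min was quantified by TMTpro 16plex LC-MS/MS with channel sums equalised. Thermal stability relative to control samples, from duplicates, is given as log2 fold change.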

log2 fold change, inactive:
ACACA isoform 4 (UniProt Q13085) 0.05, ACSS2 isoform 2 (UniProt Q9NR19) -0.025, ACOX1 isoform 2 (UniProt Q15067) -0.04, ACAT1 (UniProt P24752) -0.03, ACTR2 (UniProt P61160) -0.042, ACADS (UniProt P16219) -0.015, ADAM10 (UniProt O14672) -0.021, ABHD12 isoform 2 (UniProt Q8N2K0) -0.149, ADAR isoform 4 (UniProt P55265) -0.059, ACTR10 (UniProt Q9NZ32) -0.108, ABLIM1 (UniProt O14639) 0.763, ABCF3 (UniProt Q9NUQ8) 0.234, ABRAXAS2 (UniProt Q15018) 0.025, ACTA1 (UniProt P68133) -0.028, ADAM17 (UniProt P78536) -0.023, A2M (UniProt P01023) -0.012, ACADSB (UniProt P45954) 0.013, ACOT8 (UniProt O14734) -0.013, ABCC4 (UniProt O15439) -0.003, ACAD8 (UniProt Q9UKU7) -0.031, ACY1 (UniProt Q03154) -0.019, AASDHPPT (UniProt Q9NRN7) -0.008, ACTL6A (UniProt O96019) 0.003, ABCB7 isoform 2 (UniProt O75027) 0.084, ADAL (UniProt Q6DHV7) -0.012, ACTR6 (UniProt Q9GZN1) -0.065, ACO1 (UniProt P21399) 0.024, ACTR3 (UniProt P61158) 0.046, ABCD3 (UniProt P28288) 0.001, ACAA1 (UniProt P09110) 0.001, ABCE1 (UniProt P61221) -0.021, ADAT2 (UniProt Q7Z6V5) -0.023, ABCF1 (UniProt Q8NE71) -0.072, ACTN4 (UniProt O43707) -0.038, AARS (UniProt P49588) 0.065, ACTL8 (UniProt Q9H568) -0.03
